Experimental data from PubChem BioAssay AID504467 (National Center for Advancing Translational Sciences (NCATS), 2011).
Among all 330,000 compounds or so, about 7,700 (2.3%) were called active. The shares of active, inactive and inconclusive entries below differ from those in the screen. Calls come from the whole dose curve; as a rule, active = well fitted inhibition curve with a large enough effect; inconclusive = small, poorly fitted or top-dose-only effect, or effect the other way; inactive = flat fitted curve, though single readings scatter. Where the call is inconclusive, the potency comes from a doubtful curve fit.

Assay: qHTS screen for small molecules that inhibit ELG1-dependent DNA repair in human embryonic kidney (HEK293T) cells expressing luciferase-tagged ELG1; note: nearly all actives have a fitted effect of over 55% in size
Details: HEK293T ELG1-luciferase reporter, luminescence, 16 h, DNA damage induced by 5-fluorouridine; activity change, negative = inhibition: at 46.1 µM (top of the series)
How it was run: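 Luminescence from the luciferase reporter, measured 30 min after ONE-Glo reagent at room temperature, was the read-out. Beforehand, 2,000 cells per well were exposed for 16 hr at 37 °C to 5-fluorouridine together with compound or vehicle.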
% is set by controls: 0 for no effect and ±100 for the full control effect; potency is the fitted concentration of half-maximal effect.

Row | Structure (SMILES) | Potency | activity change, negative = inhibition
1 | COc1ccc(CC(=O)Nc2cccc(-c3ccc4nnc(C)n4n3)c2)cc1 | inconclusive: 20.6 µM [activator, partial curve] | 
2 | C/C(=N\N=C1\NC(=O)CC(C(=O)O)S1)c1cccs1 (stereo not drawn) | inconclusive: 25.9 µM [activator, partial curve, poor fit] | 
3 | O=C(/C=C/Nc1nccs1)C(F)(F)Cl |  | inactive: -2.34%
4 | COc1ccc(NS(=O)(=O)c2ccc3c(c2)n(C)c(=O)n3C)cc1 | inconclusive: 6.51 µM [inhibitor, single point] | 
5 | CCC(C)n1[nH]c(=O)c2c(C)cc(C)nc21 (stereo not drawn) | inconclusive: 14.6 µM [activator, partial curve, poor fit] | 
6 | COC(=O)c1ccc(Nc2ccc3nonc3c2[N+](=O)[O-])cc1 |  | inactive: 0.458%
7 | C=CCSc1nnc(-c2sc(-c3ccccc3)nc2C)n1C | inconclusive: 11.6 µM [activator, partial curve, poor fit] | 
8 | Cc1no[n+]([O-])c1COc1ccc(/C=C2\NC(=S)NC2=O)cc1 | inconclusive: 29.1 µM [activator, single point] | 
9 | CC(=O)N1CCc2c(sc(NC(=O)C3CCCN3S(=O)(=O)c3cccs3)c2C(N)=O)C1 (stereo not drawn) | inconclusive: 25.9 µM [inhibitor, single point] | 
10 | CCOc1ccc(S(=O)(=O)N2CC(=O)Nc3ccccc32)cc1 | inconclusive: 23.1 µM [inhibitor, single point] | 
11 | CCN(CC)S(=O)(=O)c1ccc(N2CCOCC2)c(NC(=O)C(C)Oc2ccc(F)cc2)c1 (stereo not drawn) | active: 8.2 µM | 
12 | Cc1cc2c(cc1C)CSC(c1ccc3ccccc3c1O)SC2 |  | inactive: 15.2%
13 | CCc1ccc(C(=O)Nc2cc(C)on2)o1 | inconclusive: 18.3 µM [activator, partial curve] | 
14 | Cc1ccc(N(CC(=O)NCC2CCCO2)C(=O)Cn2nnc(-c3cccs3)n2)cc1 (stereo not drawn) | inconclusive: 20.6 µM [inhibitor, partial curve] | 
15 | O=C(C[C@H]1C(=O)N(c2ccc(F)c(F)c2)C[C@@H]1Cc1ccccc1)Nc1ccccc1 | inconclusive: 10.3 µM [inhibitor, partial curve, poor fit] | 
16 | CCOC(=O)c1c(-c2ccc(C)o2)csc1NC(=O)COC(=O)c1ccc(NC(N)=O)cc1 | inconclusive: 20.6 µM [inhibitor, partial curve] | 
17 | CC(NC(=O)c1cccc(S(=O)(=O)N2CCN(Cc3ccccc3)CC2)c1)c1ccc(Cl)cc1 (stereo not drawn) | inconclusive: 23.1 µM [inhibitor, partial curve] | 
18 | COc1ccc2c(c1OC)C(=O)N1c3ccccc3N=C(c3ccc([N+](=O)[O-])cc3)CC21 (stereo not drawn) | inconclusive: 29.1 µM [inhibitor, single point] | 
19 | COc1ccc(CN=C2NN=C(c3cccc(OC)c3)CS2)cc1 | inconclusive: 11.6 µM [activator, partial curve] | 
20 | CC(C)CNC(=O)/C=C/C=C/CCCC/C=C/c1ccc2c(c1)OCO2 | inconclusive: 14.6 µM [activator, single point] | 
21 | CCn1c(SCC(=O)Nc2ccccc2C(=O)OC)nnc1-c1ccoc1C |  | inactive: -19%
22 | Cc1ccc2[nH]c3ccccc3c(=O)c2c1 | inconclusive: 11.6 µM [activator, partial curve] | 

Row | Structure (SMILES) | Potency | activity change, negative = inhibition
23 | CCOCCCNC(=O)CN1C(=O)/C(=C/c2ccccc2)Sc2ccccc21 | inconclusive: 29.1 µM [inhibitor, single point] | 
24 | Cc1ccc2cc(/C=N/NC(=O)CN3CCOCC3)c(Cl)nc2c1 | inconclusive: 16.4 µM [activator, partial curve, poor fit] | 
25 | COc1ccc(NC(=O)CSc2c3c(nc4ccccc24)CCC3)c(OC)c1 | inconclusive: 18.4 µM [inhibitor, partial curve] | 
26 | CC(C)CN1CCC(=O)N([C@H](CO)Cc2ccccc2)CC1 |  | inactive: 24.4%
27 | O=C(Nc1csc([N+](=O)[O-])c1)Nc1c(Cl)cccc1Cl |  | inactive: -6.36%
28 | Cc1ccc2c(c1)N(CC(=O)NCCCc1ccccc1)C(=O)c1cccnc1O2 | inconclusive: 11.6 µM [inhibitor, partial curve] | 
29 | CC1(C(=O)NC2CCCC2)CCC(=O)N1Cc1cccs1 (stereo not drawn) | inconclusive: 1.64 µM [activator, partial curve, poor fit] | 
30 | Cc1cc(C(=O)COC(=O)c2ccc(O)cc2O)c(C)n1-c1ccccc1 | inconclusive: 1.64 µM [activator, partial curve] | 
31 | CN(C)C(=O)c1cc(C(=O)c2ccc(C(F)(F)F)cc2)c[nH]1 | inconclusive: 6.51 µM [activator, partial curve] | 
32 | CCCc1ccc(-c2cc(NC(=O)CSc3n[nH]c(N)n3)n(-c3ccccc3)n2)cc1 |  | inactive: 5.92%
33 | O=C(CSc1nc2ccccc2c(=O)[nH]1)c1cccs1 | inconclusive: 29.1 µM [activator, partial curve, poor fit] | 
34 | CCOC(=O)c1oc2ccc(S(=O)(=O)Nc3ccc4c(c3)n(C)c(=O)n4C)cc2c1C |  | inactive: -0.0686%
35 | Cc1oc2ccc(OCC(N)=O)cc2c1C(=O)OC(C)C | inconclusive: 0.58 µM [inhibitor, single point] | 
36 | Cc1ccc([N+](=O)[O-])c(C(=O)N/N=C/c2cccs2)c1 |  | inactive: -18.1%
37 | Cc1ccc(Cl)cc1N(Cc1ccc(C(=O)NCc2cccnc2)cc1)S(=O)(=O)c1ccccc1 | inconclusive: 4.11 µM [inhibitor, single point] | 
38 | CCOc1ncccc1C(=O)OCC(=O)Nc1nnc(-c2ccccc2)o1 |  | inactive: 16.2%
39 | CC1CCCCC12NC(=O)N(CC(=O)Nc1sc3c(c1C(N)=O)CCC3)C2=O (stereo not drawn) | inconclusive: 29.1 µM [inhibitor, single point] | 
40 | CN(CC(=O)NCCc1ccc(S(N)(=O)=O)cc1)S(=O)(=O)c1cccc2nsnc12 |  | inactive: 2.62%
41 | Cc1c(C(=O)N2CCCc3ccccc32)oc2ccccc12 | inconclusive: 20.6 µM [activator, single point] | 
42 | CCOC(=O)CCCNC(=O)CSc1nc2ccc(OCC)cc2[nH]1 | inconclusive: 23.1 µM [inhibitor, single point] | 
43 | CCOc1ccc(/C=C/C(=O)c2ccccc2)cc1 | inconclusive: 16.4 µM [activator, partial curve] | 

Look-ups from above:
For Potency, Cc1oc2ccc(OCC(N)=O)cc2c1C(=O)OC(C)C shows inconclusive: 0.58 µM [inhibitor, single point]
For Potency, CCOCCCNC(=O)CN1C(=O)/C(=C/c2ccccc2)Sc2ccccc21 shows inconclusive: 29.1 µM [inhibitor, single point]
